In brackets after ≈: the same amount, converted by molar mass. The source gives many values for each of these; only a part stands here.
Test system: Escherichia coli
Assay: minimum inhibitory concentration (MIC)
Description: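 Broth microdilution MIC (Sensititre BOPO7F bovine plate, CLSI methods) of 19 antimicrobials against field isolates of P. multocida, M. haemolytica, H. somni (deep nasopharyngeal swabs) and E. coli, Enterococcus spp. (rectal swabs) from weaned dairy heifers. Incubation 16-24 h at 35 C. MIC is the lowest concentration preventing visible growth. Values with <= or > lie at the tested range limits. Trimethoprim-sulfamethoxazole is given as the trimethoprim component of a 1:19 mixture.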

CO/N=C(\C(=O)N[C@@H]1C(=O)N2C(C(=O)O)=C(CSC(=O)c3ccco3)CS[C@H]12)c1csc(N)n1 [Ceftiofur]
Conditions	minimum inhibitory concentration [mg/L]
isolate (source animal id): 1	0.5 (≈ 0.955 µM)
isolate (source animal id): 2	0.5 (≈ 0.955 µM)
isolate (source animal id): 3	0.5 (≈ 0.955 µM)
isolate (source animal id): 4	≤ 0.25
isolate (source animal id): 5	≤ 0.25
isolate (source animal id): 6	0.5 (≈ 0.955 µM)
isolate (source animal id): 7	0.5 (≈ 0.955 µM)
isolate (source animal id): 17	0.5 (≈ 0.955 µM)
isolate (source animal id): 18	0.5 (≈ 0.955 µM)
isolate (source animal id): 19	≤ 0.25
isolate (source animal id): 20	0.5 (≈ 0.955 µM)
isolate (source animal id): 21	0.5 (≈ 0.955 µM)
isolate (source animal id): 22	0.5 (≈ 0.955 µM)
isolate (source animal id): 23	0.5 (≈ 0.955 µM)
isolate (source animal id): 24	0.5 (≈ 0.955 µM)
isolate (source animal id): 25	0.5 (≈ 0.955 µM)
isolate (source animal id): 26	0.5 (≈ 0.955 µM)
isolate (source animal id): 27	8 (≈ 15.3 µM)
isolate (source animal id): 28	0.5 (≈ 0.955 µM)
isolate (source animal id): 29	0.5 (≈ 0.955 µM)
isolate (source animal id): 30	0.5 (≈ 0.955 µM)
isolate (source animal id): 31	0.5 (≈ 0.955 µM)
isolate (source animal id): 32	> 8
isolate (source animal id): 33	8 (≈ 15.3 µM)
isolate (source animal id): 34	≤ 0.25
isolate (source animal id): 35	8 (≈ 15.3 µM)
isolate (source animal id): 36	0.5 (≈ 0.955 µM)
isolate (source animal id): 37	> 8
isolate (source animal id): 38	0.5 (≈ 0.955 µM)
isolate (source animal id): 39	> 8
isolate (source animal id): 40	≤ 0.25
isolate (source animal id): 41	> 8
isolate (source animal id): 42	≤ 0.25
isolate (source animal id): 43	8 (≈ 15.3 µM)
isolate (source animal id): 44	≤ 0.25
isolate (source animal id): 45	≤ 0.25
isolate (source animal id): 46	≤ 0.25
isolate (source animal id): 47	0.5 (≈ 0.955 µM)
isolate (source animal id): 48	≤ 0.25
isolate (source animal id): 49	0.5 (≈ 0.955 µM)
isolate (source animal id): 50	0.5 (≈ 0.955 µM)
isolate (source animal id): 51	0.5 (≈ 0.955 µM)
isolate (source animal id): 52	0.5 (≈ 0.955 µM)
isolate (source animal id): 53	0.5 (≈ 0.955 µM)
isolate (source animal id): 54	≤ 0.25
isolate (source animal id): 55	0.5 (≈ 0.955 µM)
isolate (source animal id): 56	0.5 (≈ 0.955 µM)
isolate (source animal id): 57	> 8
isolate (source animal id): 58	≤ 0.25
isolate (source animal id): 59	0.5 (≈ 0.955 µM)
isolate (source animal id): 60	0.5 (≈ 0.955 µM)
isolate (source animal id): 61	≤ 0.25
isolate (source animal id): 62	0.5 (≈ 0.955 µM)
isolate (source animal id): 63	0.5 (≈ 0.955 µM)
isolate (source animal id): 64	0.5 (≈ 0.955 µM)
isolate (source animal id): 65	≤ 0.25
isolate (source animal id): 66	0.5 (≈ 0.955 µM)
isolate (source animal id): 67	≤ 0.25
isolate (source animal id): 68	0.5 (≈ 0.955 µM)
isolate (source animal id): 69	0.5 (≈ 0.955 µM)
isolate (source animal id): 70	0.5 (≈ 0.955 µM)
isolate (source animal id): 71	0.5 (≈ 0.955 µM)
isolate (source animal id): 72	0.5 (≈ 0.955 µM)
isolate (source animal id): 73	0.5 (≈ 0.955 µM)
isolate (source animal id): 74	0.5 (≈ 0.955 µM)
isolate (source animal id): 75	0.5 (≈ 0.955 µM)
isolate (source animal id): 76	0.5 (≈ 0.955 µM)
isolate (source animal id): 77	0.5 (≈ 0.955 µM)
isolate (source animal id): 78	0.5 (≈ 0.955 µM)
isolate (source animal id): 79	0.5 (≈ 0.955 µM)
isolate (source animal id): 80	0.5 (≈ 0.955 µM)
isolate (source animal id): 81	0.5 (≈ 0.955 µM)
isolate (source animal id): 82	0.5 (≈ 0.955 µM)
isolate (source animal id): 83	≤ 0.25
isolate (source animal id): 84	≤ 0.25
isolate (source animal id): 85	0.5 (≈ 0.955 µM)
isolate (source animal id): 86	0.5 (≈ 0.955 µM)
isolate (source animal id): 87	≤ 0.25
isolate (source animal id): 88	≤ 0.25
isolate (source animal id): 89	≤ 0.25
isolate (source animal id): 90	0.5 (≈ 0.955 µM)
isolate (source animal id): 91	0.5 (≈ 0.955 µM)
isolate (source animal id): 92	≤ 0.25
isolate (source animal id): 93	≤ 0.25
isolate (source animal id): 94	0.5 (≈ 0.955 µM)
isolate (source animal id): 95	≤ 0.25
isolate (source animal id): 96	≤ 0.25
isolate (source animal id): 97	0.5 (≈ 0.955 µM)
isolate (source animal id): 189	≤ 0.25
isolate (source animal id): 190	8 (≈ 15.3 µM)
isolate (source animal id): 191	≤ 0.25
isolate (source animal id): 192	0.5 (≈ 0.955 µM)
isolate (source animal id): 193	8 (≈ 15.3 µM)
isolate (source animal id): 194	0.5 (≈ 0.955 µM)
isolate (source animal id): 195	≤ 0.25
isolate (source animal id): 196	0.5 (≈ 0.955 µM)
isolate (source animal id): 197	≤ 0.25
isolate (source animal id): 198	> 8
isolate (source animal id): 199	0.5 (≈ 0.955 µM)
isolate (source animal id): 200	0.5 (≈ 0.955 µM)
isolate (source animal id): 201	≤ 0.25
isolate (source animal id): 202	≤ 0.25
isolate (source animal id): 203	0.5 (≈ 0.955 µM)
isolate (source animal id): 204	≤ 0.25
isolate (source animal id): 205	≤ 0.25
isolate (source animal id): 206	0.5 (≈ 0.955 µM)
isolate (source animal id): 207	> 8
isolate (source animal id): 208	≤ 0.25
isolate (source animal id): 209	≤ 0.25
isolate (source animal id): 210	≤ 0.25
isolate (source animal id): 211	0.5 (≈ 0.955 µM)
isolate (source animal id): 212	> 8
isolate (source animal id): 213	≤ 0.25
isolate (source animal id): 214	0.5 (≈ 0.955 µM)
isolate (source animal id): 215	0.5 (≈ 0.955 µM)
isolate (source animal id): 216	≤ 0.25
isolate (source animal id): 217	≤ 0.25
isolate (source animal id): 218	0.5 (≈ 0.955 µM)
isolate (source animal id): 219	0.5 (≈ 0.955 µM)
isolate (source animal id): 220	≤ 0.25
isolate (source animal id): 221	≤ 0.25
isolate (source animal id): 222	≤ 0.25
isolate (source animal id): 223	0.5 (≈ 0.955 µM)
isolate (source animal id): 224	≤ 0.25
isolate (source animal id): 225	0.5 (≈ 0.955 µM)
isolate (source animal id): 226	> 8
isolate (source animal id): 227	≤ 0.25
isolate (source animal id): 228	0.5 (≈ 0.955 µM)
isolate (source animal id): 229	0.5 (≈ 0.955 µM)
isolate (source animal id): 230	0.5 (≈ 0.955 µM)
isolate (source animal id): 231	0.5 (≈ 0.955 µM)
isolate (source animal id): 232	0.5 (≈ 0.955 µM)
isolate (source animal id): 233	≤ 0.25
isolate (source animal id): 234	0.5 (≈ 0.955 µM)
isolate (source animal id): 235	≤ 0.25
isolate (source animal id): 236	0.5 (≈ 0.955 µM)
isolate (source animal id): 237	1 (≈ 1.91 µM)
isolate (source animal id): 238	≤ 0.25
isolate (source animal id): 239	0.5 (≈ 0.955 µM)
isolate (source animal id): 240	0.5 (≈ 0.955 µM)
isolate (source animal id): 241	0.5 (≈ 0.955 µM)
isolate (source animal id): 242	0.5 (≈ 0.955 µM)
isolate (source animal id): 243	0.5 (≈ 0.955 µM)
isolate (source animal id): 244	0.5 (≈ 0.955 µM)
isolate (source animal id): 245	1 (≈ 1.91 µM)
isolate (source animal id): 246	0.5 (≈ 0.955 µM)
isolate (source animal id): 247	0.5 (≈ 0.955 µM)
isolate (source animal id): 248	0.5 (≈ 0.955 µM)
isolate (source animal id): 249	0.5 (≈ 0.955 µM)
isolate (source animal id): 250	0.5 (≈ 0.955 µM)
isolate (source animal id): 251	0.5 (≈ 0.955 µM)
isolate (source animal id): 252	0.5 (≈ 0.955 µM)
isolate (source animal id): 253	0.5 (≈ 0.955 µM)
isolate (source animal id): 254	0.5 (≈ 0.955 µM)
isolate (source animal id): 255	0.5 (≈ 0.955 µM)
isolate (source animal id): 256	0.5 (≈ 0.955 µM)
isolate (source animal id): 257	0.5 (≈ 0.955 µM)
isolate (source animal id): 258	0.5 (≈ 0.955 µM)
isolate (source animal id): 259	0.5 (≈ 0.955 µM)
isolate (source animal id): 260	0.5 (≈ 0.955 µM)
isolate (source animal id): 261	0.5 (≈ 0.955 µM)
isolate (source animal id): 262	0.5 (≈ 0.955 µM)
isolate (source animal id): 263	≤ 0.25
isolate (source animal id): 264	0.5 (≈ 0.955 µM)
isolate (source animal id): 265	0.5 (≈ 0.955 µM)
isolate (source animal id): 266	≤ 0.25
isolate (source animal id): 267	≤ 0.25
isolate (source animal id): 268	0.5 (≈ 0.955 µM)
isolate (source animal id): 269	0.5 (≈ 0.955 µM)
isolate (source animal id): 270	0.5 (≈ 0.955 µM)
isolate (source animal id): 271	≤ 0.25
isolate (source animal id): 272	≤ 0.25
isolate (source animal id): 273	≤ 0.25
isolate (source animal id): 274	0.5 (≈ 0.955 µM)
isolate (source animal id): 275	≤ 0.25
isolate (source animal id): 276	0.5 (≈ 0.955 µM)
isolate (source animal id): 277	≤ 0.25
isolate (source animal id): 278	0.5 (≈ 0.955 µM)
isolate (source animal id): 279	0.5 (≈ 0.955 µM)
isolate (source animal id): 280	0.5 (≈ 0.955 µM)
isolate (source animal id): 281	0.5 (≈ 0.955 µM)
isolate (source animal id): 282	0.5 (≈ 0.955 µM)
isolate (source animal id): 283	0.5 (≈ 0.955 µM)
isolate (source animal id): 284	1 (≈ 1.91 µM)
isolate (source animal id): 285	> 8
isolate (source animal id): 286	0.5 (≈ 0.955 µM)
isolate (source animal id): 287	0.5 (≈ 0.955 µM)
isolate (source animal id): 288	≤ 0.25
isolate (source animal id): 289	0.5 (≈ 0.955 µM)
isolate (source animal id): 290	0.5 (≈ 0.955 µM)
isolate (source animal id): 291	0.5 (≈ 0.955 µM)
isolate (source animal id): 292	0.5 (≈ 0.955 µM)
isolate (source animal id): 293	> 8
isolate (source animal id): 294	≤ 0.25
isolate (source animal id): 295	0.5 (≈ 0.955 µM)
isolate (source animal id): 296	≤ 0.25
isolate (source animal id): 297	0.5 (≈ 0.955 µM)
isolate (source animal id): 298	0.5 (≈ 0.955 µM)
isolate (source animal id): 299	≤ 0.25
isolate (source animal id): 300	0.5 (≈ 0.955 µM)
isolate (source animal id): 301	0.5 (≈ 0.955 µM)
isolate (source animal id): 302	≤ 0.25
isolate (source animal id): 303	≤ 0.25
isolate (source animal id): 304	0.5 (≈ 0.955 µM)
isolate (source animal id): 305	≤ 0.25
isolate (source animal id): 306	0.5 (≈ 0.955 µM)
isolate (source animal id): 307	≤ 0.25
isolate (source animal id): 308	0.5 (≈ 0.955 µM)
isolate (source animal id): 309	0.5 (≈ 0.955 µM)
isolate (source animal id): 310	0.5 (≈ 0.955 µM)
isolate (source animal id): 311	≤ 0.25
isolate (source animal id): 312	≤ 0.25
isolate (source animal id): 313	0.5 (≈ 0.955 µM)
isolate (source animal id): 314	≤ 0.25
isolate (source animal id): 315	≤ 0.25
isolate (source animal id): 316	≤ 0.25
isolate (source animal id): 317	8 (≈ 15.3 µM)
isolate (source animal id): 318	0.5 (≈ 0.955 µM)
isolate (source animal id): 319	≤ 0.25
isolate (source animal id): 320	0.5 (≈ 0.955 µM)
isolate (source animal id): 321	0.5 (≈ 0.955 µM)
isolate (source animal id): 322	8 (≈ 15.3 µM)
isolate (source animal id): 323	≤ 0.25
isolate (source animal id): 324	≤ 0.25
isolate (source animal id): 325	0.5 (≈ 0.955 µM)
isolate (source animal id): 326	≤ 0.25
isolate (source animal id): 327	≤ 0.25
isolate (source animal id): 328	≤ 0.25
isolate (source animal id): 329	≤ 0.25
isolate (source animal id): 330	8 (≈ 15.3 µM)
isolate (source animal id): 331	0.5 (≈ 0.955 µM)
isolate (source animal id): 332	0.5 (≈ 0.955 µM)
isolate (source animal id): 333	0.5 (≈ 0.955 µM)
isolate (source animal id): 334	0.5 (≈ 0.955 µM)
isolate (source animal id): 335	0.5 (≈ 0.955 µM)
isolate (source animal id): 336	≤ 0.25
isolate (source animal id): 337	0.5 (≈ 0.955 µM)
isolate (source animal id): 338	0.5 (≈ 0.955 µM)
isolate (source animal id): 339	≤ 0.25
isolate (source animal id): 340	≤ 0.25
isolate (source animal id): 341	≤ 0.25

Source: the supplement of paper PMC8612539
